In patent US10080775B2 (CAREGEN CO., LTD., priority 2017, dated 2018):

Experiment: general procedure: peptide synthesis; chloro trityl chloride resin
Conditions: whole synthesis

Substance: PEPTIDE1{[Valproyl].I.W.S.L.D.T.Q.Y.G.G.R.G.D}$$$$V2.0
- crude mass: 0.8 g
- crude yield (scale of the general procedure 700 mg resin): 89.0%

Some peptides are written in HELM: one residue between dots, names in brackets for other building blocks, links after the first $.
